Source: PubChem BioAssay AID493014 (National Center for Advancing Translational Sciences (NCATS), 2011)
The other results are listed elsewhere or left out. The main result of the screen is listed elsewhere. These columns were measured beside it and carry no call. Most of these compounds were active or inconclusive in the main read-out, so they are no random draw. Potencies come from curve fits of mixed quality, noted in brackets.

Test: qHTS Assay to Find Inhibitors of Chronic Active B-Cell Receptor Signaling
Conditions: ABC-DLBCL IkBa-CBG/CBR reporter, luminescence ratio (green luciferase fused to IkBa over red control in TMD8 lymphoma cells), 4 h
Excerpt: NIH Molecular Libraries Probe Production Network [MLPCN] NIH Chemical Genomics Center [NCGC] MLPCN Grant: 1 R03 DA031086-01A1 PI Name: Dr. R. Eric Davis NCGC Assay Overview: Diffuse large B-cell lymphoma (DLBCL) is the most common category of non-Hodgkin lymphoma, with ~20,000 new cases per year in the United States. DLBCL should be regarded as a collection of different neoplasms. Microarray gene expression analysis has defined two principal types of DLBCL, named for their similarity to normal B cell stages or activation states: a germinal center B-cell (GCB) type, and an activated B-cell (ABC) type. In ABC-DLBCL, a constitutive high-level activity of the NF-kappaB family of transcription factors has been observed (1) and NF-kappaB target genes are more highly expressed in ABC primary tumors than in GCB tumors. Functional studies have shown a constitutive high-level activity of the IkappaB (inhibitor of kappa-B) kinase (IKK) complex. […] Further analysis of DLBCL primary tumors for NF-kappaB target gene expression imply that although CARD11 is required for constitutive IKK activity in all ABC-DLBCL lines, mutations in CARD11 may be the root cause of IKK activation only in lines or tumors with such mutations. In other words, CARD11 mutations may explain NF-kappaB activation in only 10% of ABC-DLBCL cases. […] This process has been termed 'chronic active BCR signaling' (CABS). The goal of this screen is to find small-molecule inhibitors of the CABS pathway found in ABC-DLBCL lines using a cell-based assay that measures IkappaBalpa stability, which has already been extensively validated in the OCI-Ly3 line (PubChem AID:445; REF: 4). […] The assay uses green (CBG68) and red (CBR) emitting beetle luciferases [Chroma-GloTM developed by Promega Corp.] where the green luciferase is fused to IkappaBalpha and the red luciferase is present in its native state. Both luciferase genes are stably present in the TMD8 human ABC DLBCL cell line, but their expression is under the control of tetracycline-inducible promoters. Following the addition of doxycycline to induce expression of the luciferases, the green luminescence in control cultures rises only slowly because the CBG fusion partner IkappaBalpha is targeted by IKK activity for rapid degradation. In contrast, green luminescence rises rapidly in the presence of proteasome inhibitors or IKK inhibitors. The rise in red luminescence of CBR is not affected by proteasome or IKK inhibitors, and serves as normalization for cell number and nonspecific effects. Compounds were screened as a concentration-titration series that ranged from 46 uM to 3 nM.
NCGC Assay Protocol Summary: Cells were seeded in 1536-well plates at 5000 cells/4uL in IMDM medium containing 0.5% FBS, w/o phenol red, 1% penicillin/streptomycin. Then, 23 nL of compounds or DMSO were delivered to each well using a pin tool. One uL 20ng/ml doxycycline was then dispensed into white solid 1536-well plates and the plates were incubated at 37C/5% C02 in a cell incubator for 4 hrs. Then 4 uL luminescent substrate mix (in-house prepared: 150 mM Tris-Cl, pH 7.6, 3 mM MgCl2, 1% Triton X-100, 5 mM DTT, 0.2 mM CoA, 0.15 mM ATP, 5 mM D-luciferin, final concentrations) was added to each well. The plate was incubated at r.t. for 10-15 min. The plates were measured on a ViewLux plate reader for green luminescence (540/20 nm filter) and red luminescence (618/8 nm filter). The green and red luminescent signals were corrected for red and green luminescence filter overlap using previously determined filter calibration constants (determined using the procedure outlined in the Promega Technical Manual; REF 4). The %Activity was determined from the ratio of corrected green/red luminescent values. MG132 were used as control. […] Red luminescent %Activity was normalized to the difference between red luminesence in basal cells (0%Activity) and zero luminescence (-100% Activity). […]

[1] = measured here: CBR red luminescence, cell number
[2] = measured here: IkBa-CBG green luminescence

| Structure (SMILES) | AC50 [1] | AC50 [2] |
| --- | --- | --- |
| COP(=O)(OC)C(NC(=O)C(C)(C)C)=C(Cl)Cl | 18.4 µM [rising, single point] |  |
| O=C(N/N=C/c1c(O)n(-c2cccc3ccccc23)c(=O)[nH]c1=O)c1ccncc1 | 35.5 µM [falling, single point] |  |
| CCOc1ccc(-c2c(C)n(-c3ccc(OCC)cc3)c3[n+]2CCCCC3)cc1 | 6.31 µM [falling, partial curve] |  |
| CCC(=NCCC(c1ccccc1)c1ccccc1)c1c(O)[nH]c(=O)[nH]c1=O |  | 18.4 µM [falling, partial curve] |
| CC(C)c1ccc(N2CC(C)(C)C2=O)cc1 | 20 µM [rising, partial curve, poor fit] |  |
| COc1ccc(-n2cnc3cc(C(=O)N4CCC5(CC4)OCCO5)ccc32)cc1 | 11.2 µM [rising, single point] | 25.1 µM [falling, single point] |
| O=C1NC(=O)N(Cc2ccc(F)cc2)C(=O)/C1=C\C=C\c1ccco1 | 31.6 µM [rising, single point] | 35.5 µM [falling, single point] |
| CCSc1cc(C2C(C#N)=C(N)Oc3n[nH]c(C)c32)c(C)o1 (centres undefined) |  | 23.1 µM [falling, partial curve, poor fit] |
| CCCCOP(=O)(c1ccc(N(C)C)cc1)C(O)c1ccc(N(C)C)cc1 (centres undefined) | 0.112 µM [rising, full curve, poor fit] |  |
| O=C(CSc1ccccc1)N1CCC2(CC1)OCCO2 | 23.1 µM [rising, single point] |  |
| O=C1C(Cc2cnc[nH]2)NC(=S)N1c1ccccc1 (centres undefined) | 10 µM [rising, partial curve, poor fit] |  |
| COC(=O)c1ccccc1NS(=O)(=O)c1ccc2c3c(cccc13)C(=O)N2 | 10 µM [rising, partial curve, poor fit] |  |
| COc1ccc(C2NCc3ccc4c(c3-n3cccc32)OCO4)cc1OC (centres undefined) | 1.78 µM [rising, partial curve] |  |
| O=C(c1ccc(N2CCCCC2)c([N+](=O)[O-])c1)N1CCC2(CC1)OCCO2 | 35.5 µM [rising, single point] |  |
| CN1CCc2nc(N)c(C#N)c(-c3ccccc3)c2C1 | 16.4 µM [falling, single point] |  |
| C[C@]12CCC3C(CC[C@H]4C[C@@H](O)CC[C@]34C)C1C[C@H](Br)[C@@H]2O (some centres undefined) | 6.51 µM [rising, single point] |  |
| O=C(NCCN1CCCCC1)c1ccc(Cl)nc1Cl | 25.1 µM [rising, single point] |  |

Quoted from the listing:
In AC50 [2], CCC(=NCCC(c1ccccc1)c1ccccc1)c1c(O)[nH]c(=O)[nH]c1=O reads 18.4 µM [falling, partial curve]
In AC50 [1], O=C1NC(=O)N(Cc2ccc(F)cc2)C(=O)/C1=C\C=C\c1ccco1 reads 31.6 µM [rising, single point]
